Some of these results come from one statement about several compounds together.
Test system: Herpes zoster
Type: in vivo, human
Conditions: person, lesions with skin edema on mid back; 50 μg/gr cream, applied 4-5 times
Description: The method of the invention has been carried out with respect to a number of skin disorders. The patients were treated with one of two peptides, each at a concentration of 50 μg/gr cream (unless otherwise indicated):
The cream was manufactured by Amiga LTD, Israel, and contains the following components:
1. A person was diagnosed with Herpes zoster (shingles), which appeared as a painful, circumferential rash in the abdominal area. The patient had been on antibiotics, with no improvement.
2. A person was diagnosed with Herpes zoster, which appeared as painful lesions with skin edema on the mid back area, appearing several times a year. […] Decrease in the skin rash and the degree of the sore and swelling and a shortening of the time of recovery (healing).

Substance | time to relief from itching [min]
pGLU-ASN-TRP-THR [ZEP4] | 10 to 20
pGLU-ASN-TRP-LYS-C8 [ZEP3] | 10 to 20
